# Measured values from PubChem BioAssay AID493014 (National Center for Advancing Translational Sciences (NCATS), 2011).
# The list shows a part of the results. Shown are side measurements of this screen, not its main read-out; they come without a call. Compounds called inactive in the main read-out are mostly missing here. The note in brackets gives the kind of curve behind each potency; many fits are weak.
# Assay: qHTS Assay to Find Inhibitors of Chronic Active B-Cell Receptor Signaling
# Settings: ABC-DLBCL IkBa-CBG/CBR reporter, luminescence ratio (green luciferase fused to IkBa over red control in TMD8 lymphoma cells), 4 h
# How it was run: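 Compounds up to 46 uM were incubated four hours with TMD8 cells whose green CBG68 luciferase is fused to IkappaBalpha; red CBR luminescence normalised the signal, and concentration-effect curves were fitted to fusion, red and ratio data.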
# [1] = measured here: CBR red luminescence, cell number
# [2] = measured here: IkBa-CBG green luminescence
Structure (SMILES),AC50 [1],AC50 [2]
O=C(Nc1ccccc1)c1cccc(-c2nnc(-c3ccccc3)o2)c1,"0.58 µM [rising, full curve, poor fit]",
Cc1occc1C(=O)N/N=C/c1c[nH]c2ccccc12,"10 µM [falling, partial curve, poor fit]",
Cc1cccc(C2NC(c3cccc(C)c3)C(C)C(=O)C2C)c1 (stereo unspecified),"35.5 µM [rising, single point]",
Cn1c(=O)c2[nH]c(CNCc3ccccc3Cl)nc2n(C)c1=O,,"6.51 µM [falling, single point]"
COc1ccccc1-c1cc(C(=O)N2CCc3ccccc3C2)c2ccccc2n1,,"35.5 µM [rising, partial curve, poor fit]"
CCc1ccc(NC(=O)C(=O)NCc2ccccn2)cc1,"0.251 µM [rising, full curve, poor fit]",
COc1cc(NC(=O)CCc2nnc3ccc(N4CCN(C)CC4)nn23)cc(OC)c1,"35.5 µM [rising, partial curve, poor fit]",
CCOC(=O)C1(Cc2ccccc2)CCN(Cc2cnc(N3CCOCC3)s2)CC1,"3.16 µM [falling, single point]",
COc1ccc(/C=N/NC(=O)CCn2c3ccccc3c3ccccc32)cc1O,"16.4 µM [falling, single point]","2.91 µM [falling, partial curve, poor fit]"
CCC(C)NC(=O)CCn1c(-c2ccccc2)cc(C(C)=O)c1C (stereo unspecified),"8.2 µM [rising, partial curve, poor fit]",
CCOC(=O)c1ccc(Nc2nnc(C)c3ccccc23)cc1,"4.47 µM [rising, full curve, poor fit]",
COCCCN1Cc2cccc(C(=O)O)c2C1=O,"5.17 µM [falling, single point]",
CN(CC(=O)Nc1cc(S(=O)(=O)N2CCCCCC2)ccc1Cl)Cc1ccc2c(c1)OCO2,"8.2 µM [rising, partial curve, poor fit]",
CCOC(=O)C1=C(c2ccccc2)NC(=S)NC1c1ccc(Cl)cc1 (stereo unspecified),"14.1 µM [falling, single point]",
N#C/C(=C\c1ccco1)c1nc2ccccc2s1,"3.66 µM [rising, partial curve, poor fit]",
CC(C)c1nc(SCC(=O)c2ccc(F)cc2)c2ccccc2n1,"17.8 µM [falling, partial curve]","35.5 µM [falling, single point]"
COc1cc(C)ccc1OCCOCCOc1ccc(C)cc1[N+](=O)[O-],"25.9 µM [rising, single point]",
COc1ccc(N2CCN(CCCNS(=O)(=O)c3c(C)noc3/C=C/N(C)C)CC2)cc1,"5.17 µM [rising, partial curve, poor fit]",
CCCn1c(CC)nc([N+](=O)[O-])c1S(=O)(=O)c1ccccc1,"31.6 µM [falling, single point]",
CC(=O)/C=C\c1cn(-c2ncc(C(F)(F)F)cc2Cl)c2ccccc12,"18.4 µM [falling, single point]",
Cc1cc(NC(=O)CSc2n[nH]c(CC(C)C)n2)no1,"25.9 µM [falling, single point]",

Structure (SMILES),AC50 [1],AC50 [2]
CCOc1cc(-c2nccc3cc(OC)c(OC)cc23)cc(OCC)c1OCC,"35.5 µM [falling, single point]",
N#CC1=C(N)Oc2cc3ccccc3cc2C1c1cccnc1 (stereo unspecified),"11.2 µM [falling, partial curve]",
CCOC(=O)C(CCCOc1ccccc1)C(=O)OCC,"29.1 µM [rising, single point]",
O=C(O)CC1(CC(=O)NCc2cccc(Cl)c2)CCCCC1,"3.55 µM [falling, single point]","3.55 µM [rising, single point]"
Cc1ccc(C)c(C(=O)O/N=C(\N)c2ccc(Br)cc2)c1,"29.1 µM [rising, single point]",
COc1ccc2c(c1)OC[C@H]1[C@H]2N2C(=O)c3ccccc3NC(=O)[C@@]2(C)[C@H]1c1ccccc1,"20.6 µM [falling, partial curve, poor fit]",
O=C1CCCc2c1nc(-c1ccc([N+](=O)[O-])cc1)n2O,"5.62 µM [falling, full curve]",
COc1ccc(-c2nc(C)c(C(C)=O)n2O)cc1OC,"10 µM [falling, partial curve]",
C[C@@H]1CC[C@H]2C(=O)N3[C@@H](CC[C@@H](C)[C@@H]3c3ccc(Br)cc3)C(=O)N2[C@H]1c1ccc(Br)cc1,"16.4 µM [falling, single point]",
O=c1[nH]n(-c2ccc(Cl)cc2)c2ncccc12,"35.5 µM [falling, single point]",
CN(C)/C=C\C(=C/C(=O)C(F)(F)F)Nc1ccccc1Oc1ccccc1,"35.5 µM [falling, single point]",
Cc1csc(SCC(=O)Nc2ccccc2C)n1,"6.51 µM [falling, partial curve, poor fit]",
CCN=C1Sc2nc3ccc(OCC)cc3cc2CN1CCOC,"0.231 µM [rising, full curve, poor fit]",
N#Cc1ccc(-c2ccc(C3Nc4ccccc4C(=O)N3O)o2)cc1 (stereo unspecified),"7.31 µM [falling, partial curve]","11.6 µM [rising, partial curve, poor fit]"
O=[N+]([O-])c1ccc(S(=O)(=O)NCC(c2cccnc2)N2CCc3ccccc32)cc1 (stereo unspecified),"9.2 µM [falling, partial curve]",
Cc1nc2sc(C(c3ccccc3)N3CCN(c4ccccc4F)CC3)c(O)n2n1 (stereo unspecified),"5.17 µM [rising, partial curve]",
Cc1ccc(C(=O)NC(C)c2ccc3c(c2)OCO3)s1 (stereo unspecified),"25.1 µM [rising, partial curve, poor fit]",
CCCS(=O)(=O)c1c(S(=O)(=O)CCC)c2c(N)cccn2c1C(=O)c1ccc(F)cc1,"4.11 µM [falling, full curve, poor fit]",
Cc1cccc2sc(NC(=O)c3cccc(S(=O)(=O)N4CCc5ccccc54)c3)nc12,"5.8 µM [falling, partial curve, poor fit]",
COc1ccc(NC(=S)N2CCNC(=O)C2CC(=O)Nc2ccc(C)cc2)cc1 (stereo unspecified),"4.11 µM [rising, full curve, poor fit]",
CCN(CC)S(=O)(=O)c1ccc2[nH]cc(C(=O)NCCCN3CCCCC3C)c(=O)c2c1 (stereo unspecified),"29.1 µM [rising, single point]","32.6 µM [falling, partial curve, poor fit]"

Structure (SMILES),AC50 [1],AC50 [2]
CNC(=O)COC(=O)c1ccc(NS(=O)(=O)c2ccc3c(c2)OCCO3)cc1,"11.2 µM [rising, partial curve, poor fit]",
C/C(=N\NC(=O)c1c[nH]c2ccccc12)c1ccco1,"25.9 µM [falling, single point]",
Cc1ccc(SC(C)c2nc(-c3ccccc3)no2)cc1 (stereo unspecified),"20.6 µM [rising, single point]",
O=c1[nH]cnc2c1c(-c1ccccc1)cn2-c1ccccc1,"2.24 µM [falling, partial curve, poor fit]",
Cc1cccc(NC(=O)c2cc(S(=O)(=O)N3CCc4ccccc43)cn2C)c1C,"35.5 µM [rising, single point]",
Cc1ccc(CCNC(=O)c2ccc3nc4ccc(Cl)cc4c(=O)n3c2)cc1,"0.501 µM [falling, partial curve, poor fit]",
COc1ccc(C2C(C(C)=O)=C(O)C(=O)N2c2nccs2)cc1OC (stereo unspecified),"29.1 µM [falling, single point]",
CC(=O)c1c(C)[nH]c(C(=O)OCC(=O)NNC(=O)c2ccc([N+](=O)[O-])cc2)c1C,"4.11 µM [rising, full curve, poor fit]",
O=C(Nc1ccccc1Cl)Nc1cccc2cccnc12,"12.6 µM [falling, partial curve, poor fit]",
O=C(COC(=O)c1ccccc1Br)Nc1ccccc1F,"8.91 µM [falling, partial curve]",
Cc1csc(NC(=O)c2cc(-c3ccccc3)nc3ccccc23)n1,"13 µM [falling, partial curve, poor fit]",
COc1cccc(N2CCN(c3ncnc4c3cnn4-c3ccc(C)cc3C)CC2)c1,"7.94 µM [falling, partial curve, poor fit]",
CCN1C(=NCc2cccc(Cl)c2)N[C@@H](c2cccc(F)c2)C(C(=O)OC)=C1C,"35.5 µM [falling, single point]",
COc1ccc(-c2nnc(SCC(=O)c3[nH]c(C)c(C(C)=O)c3C)o2)cc1,"20.6 µM [rising, partial curve, poor fit]",
COc1cc(Cn2nnc3ccccc32)cc(Br)c1O,"17.8 µM [rising, partial curve, poor fit]",
C/C=C/C(=O)N1CC2(CC(c3cccc(NC(=O)COc4ccc(Cl)cc4)c3)=NO2)C[C@@H]1C(N)=O (stereo partly specified),"6.31 µM [falling, full curve]",
COc1ccc(-c2cn3c(C)c(C(=O)NC(C)(C)C)sc3n2)cc1,"17.8 µM [falling, single point]",
O=C(CNCc1ccccn1)N1CCc2ccccc2C1,"5.01 µM [rising, single point]",
O=C(NCCOc1nc(N2CCCCC2)nc(N2CCOCC2)n1)Nc1ccccc1,"0.0366 µM [rising, full curve, poor fit]",
